Test results: patent US20240174985A1, “METHOD FOR PRODUCING OVARIAN SOMATIC CELL-LIKE CELLS, AND METHOD FOR INDUCING DIFFERENTIATION OF PRIMATE PLURIPOTENT STEM CELLS INTO OVARIAN SOMATIC CELL-LIKE CELLS” (Kyoto University, priority 2021, published 2024)
At least one compound was matched to its structure with a doubt left.

Experiments:
Format in all cases: cell-based
[1] = test system: human iPS cells; test: Quantitative PCR of marker genes in cells induced from human iPS cells; settings: concentration of RA decreased in step 2 (0.1, 0.5, 1 μM); day 15
Text: The relative expression level of each marker gene was confirmed using a PCR apparatus (BIO-RAD CFX384 Real-Time System) with the following primers and conditions. In the tables, the PPIA gene and the RPLP0 gene were used as housekeeping genes. The difference in qPCR is a difference from the average value taken as “(PPIA+RPLP0)/2”. In addition, the ERCC gene was used as an absolute control between samples.

[2] = test system: cynomolgus monkey ES cells
[3] = test system: human iPS cells; test: Induction of differentiation from human iPS cells into ovarian somatic cell-like cells (FACS of OSR1-tdTomato/NR5A1-EGFP reporters, observation of embryoid bodies); settings: Ly294002 added in step 1; FACS on day 18; OTNG strain
Text: In order to conveniently observe the expression of genes typical at each developmental stage, a human iPS cell line 1390G3 was genetically modified, and a DNA sequence that emits red fluorescence (tdTomato) with the expression of the OSR1 gene, green fluorescence (EGFP) with the expression of the NR5A1 gene, and red fluorescence (tdTomato) with the expression of the FOXL2 gene was manufactured (see FIG. 1, and after introduction into the chromosome, a portion of “PGKp-Neo (or Puro)-pA” portion was deleted with Cre). An iPS cell line into which two DNA sequences of OSR1 and NR5A1 had been introduced (which may be hereinafter abbreviated as “OTNG”), and an iPS cell line into which two DNA sequences of NR5A1 and FOXL2 had been introduced (which may be hereinafter abbreviated as “NGFT”) were manufactured. In the present test, the OTNG strain was used in most of the experiments. Furthermore, NR5A1 and SF1 are the same gene.
The cells at each stage were analyzed using a flow cytometer (BD FACSAria III).
The ES cells of monkeys and human iPS cells are considered to be similar to EpiLC in a slightly advanced state in terms of differentiation, as compared with mouse ES cells. Therefore, in the examination using monkey or human pluripotent stem cells in the present test, step 0 was omitted and the process was started from step 1. […]

## CC1=C(/C=C/C(C)=C/C=C/C(C)=C/C(=O)O)C(C)(C)CCC1 [RA, retinoic acid]
[1]
  expression of the marker gene of posteriorization: not recognized
[2]; RA added in step 3 (3, 1, 0.1 μM, 48 hours)
  expressions of WT1 and GATA4: no significant difference
[2]; added to each condition in step 3 (16 patterns), day 16
  number of induced cells: consistently reduced
[2]; one cytokine added with EGF in step 3, compared with no cytokine control (CK−), BMP4 1 ng/ml, SHH 30 ng/mL, PD0325901 1 μM, RA 3 μM, day 16
  induction efficiency: significantly reduced

## O=c1cc(N2CCOCC2)oc2c(-c3ccccc3)cccc12 [Ly294002]
[3]
  induction efficiency: did not cause an increase
  number of cells collectable: rather reduced
